Results: patent US20030022345A1
Results are given in words; binding and its absence hold for the method and conditions named. For part of these data: Binding seen in cells or lysates may run through a third protein. Some entries that bind do so weakly or less than the wild type. Tags and fused reporters may be left off the sequences shown.

Amino acid sequences for entries named in this document (tags omitted). Residues count along the entry.
UniProt P60842, residues 2-406: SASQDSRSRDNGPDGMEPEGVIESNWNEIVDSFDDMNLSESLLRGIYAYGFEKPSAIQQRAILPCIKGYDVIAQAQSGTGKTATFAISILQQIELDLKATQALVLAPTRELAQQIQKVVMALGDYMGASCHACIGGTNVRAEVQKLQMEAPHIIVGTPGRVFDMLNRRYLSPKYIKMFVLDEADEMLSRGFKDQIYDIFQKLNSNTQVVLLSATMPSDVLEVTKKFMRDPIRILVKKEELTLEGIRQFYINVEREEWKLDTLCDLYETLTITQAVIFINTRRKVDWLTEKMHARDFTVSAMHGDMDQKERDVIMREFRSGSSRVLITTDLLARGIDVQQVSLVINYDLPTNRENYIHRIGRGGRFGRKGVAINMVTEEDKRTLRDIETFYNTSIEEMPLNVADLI

How the values were obtained:
[1] = target: eIF4A (endogenous in HeLa cells) (human (HeLa cells)) (UniProt P60842); experiment: summary in the discussion
[2] = target: eIF4A (endogenous in HeLa cells) (human (HeLa cells)) (UniProt P60842); experiment: heading of the results
[3] = target: eIF4A (endogenous in HeLa cells) (human (HeLa cells)) (UniProt P60842); experiment: anti-HA co-immunoprecipitation from HeLa extracts, Western blot

Measured: binding

B1: HA-tagged p97 (N-terminal three copies of HA; pcDNA3-HA-p97) (protein, not shown: small tags and cut ends)
chain: VESAIAEGGASRFSASSGGGGSRGAPQHYPKTAGNSEFLGKTPGQNAQKWIPARSTRRDDNSAANNSANEKERHDAIFRKVRGILNKLTPEKFDKLCLELLNVGVESKLILKGVILLIVDKALEEPKYSSLYAQLCLRLAEDAPNFDGPAAEGQPGQKQSTTFRRLLISKLQDEFENRTRNVDVYDKRENPLLPEEEEQRAIAKIKMLGNIKFIGELGKLDLIHESILHKCIKTLLEKKKRVQLKDMGEDLECLCQIMRTVGPRLDHERAKSLMDQYFARMCSLMLSKELPARIRFLLQDTVELREHHWVPRKAFLDNGPKTINQIRQDAVKDLGVFIPAPMAQGMRSDFFLEGPFMPPRMKMDRDPLGGLADMFGQMPGSGIGTGPGVIQDRFSPTMGRHRSNQLFNGHGGHIMPPTQSQFGEMGGKFMKSQGLSQLYHNQSQGLLSQLQGQSKDMPPRFSKKGQLNADEISLRPAQSFLMNKNQVPKLQPQITMIPPSAQPPRTQTPPLGQTPQLGLKTNPPLIQEKPAKTSKKPPPSKEELLKLTETVVTEYLNSGNANEAVNGVREMRAPKHFLPEMLSKVIILSLDRSDEDKEKASSLISLLKQEGIATSDNFMQAFLNVLDQCPKLEVDIPLVKSYLAQFAARAIISELVSISELAQPLESGTHFPLFLLCLQQLAKLQDREWLTELFQQSKVNMQKMLPEIDQNKDRMLEILEGKGLSFLFPLLKLEKELLKQIKLDPSPQTIYKWIKDNISPKLHVDKGFVNILMTSFLQYISSEVNPPSDETDSSSAPSKEQLEQEKQLLLSFKPVMQKFLHDHVDLQVSALYALQVHCYNSNFPKGMLLRFFVHFYDMEIIEEEAFLAWKEDITQEFPGKGKALFQVNQWLTWLETAEEEESEEEAD
binds: all assays above
